Assay results published in patent US7635572B2, “Methods for conducting assays for enzyme activity on protein microarrays” (Life Technologies Corporation, priority 2004, dated 2009).

Key:
[1] = tested on: 39 kinases (Table 4); assay: Global specificity profiling, single point inhibition on kinase microarrays (Example VII); type: biochemical; details: substrates histone, casein, MBP, polyEY, control 2% DMSO
Method: To assess the application of microarray assays for compound profiling, seven known inhibitors (see Table of inhibitors used in global specificity profiling experiment) and one control (2% DMSO) were tested on microarrays printed with a group of kinases (as well as positive and negative controls). […] Twelve spots of each kinase or control were printed on each array, and three arrays were used for each inhibitor. A mixture of generic kinase substrates (histone, casein, MBP, and polyEY) was used in the assay. The average of all signals from the same inhibitor or control experiment was calculated.
To expedite data analysis regarding the kinase families that are inhibited by a particular […], a graphical representation can be constructed of inhibition data for substrates in such a manner that phylogenetically related kinases can be spatially arranged on the graphical representation.

[2] = tested on: plurality of kinases (Table 5); assay: Further analysis of a plurality of inhibitors and a plurality of kinases on microarray (Example IX, Table 5); type: biochemical;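 also: inhibition of each kinase by the inhibitors is given as a qualitative level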;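 as to Inhibition level, Homo sapiens in: level 0 none or unclear Level 1 marginal Level 2 substantial inhibition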;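 as to Inhibition level, Homo sapiens, o: level 0 none or unclear Level 1 marginal Level 2 substantial inhibition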

CN[C@@H]1C[C@H]2O[C@@](C)([C@@H]1OC)n1c3ccccc3c3c4c(c5c6ccccc6n2c5c31)C(=O)NC4 [Staurosporine]
observed specificity (percentage-of-inhibition data for 39 kinases) [1]: broad spectrum of kinases inhibited
Inhibition level, Homo sapiens in [2]: 2
Inhibition level, Homo sapiens p [2]: 2
Inhibition level, Homo sapiens, B [2]: 2
Inhibition level, Homo sapiens, S [2]: 0
Inhibition level, Homo sapiens, o [2]: 0
Inhibition level, Homo sapiens, s [2]: 2
